Values from PubChem BioAssay AID1224826 (NIAID, 2016).
Here is a random part of about 17,000 reagents. About 1,110 of all reagents (6.6%) were called active. 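Active means lowered or raised reporter signal; replicate intensities are raw and not normalised per plate.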 Entries without a mark were called inactive. No sequences are given here.

- Purpose: 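Regulators of Tlr4 signalling leading to Tnf-alpha expression in macrophages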 (primary screen)
- System: RAW264.7 G9 macrophages from mouse bearing reporters for p65 (GFP) and the Tnf promoter (mCherry)
- Reagents: siRNA pool against mouse genes, 100 nM
- Duration: 16 h of LPS stimulation, after 2 days of siRNA transfection
- Challenge: bacterial lipopolysaccharide (Salmonella minnesota R595), 10 ng/ml
- Measurement: 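Nuclear mCherry signal of the Tnf promoter reporter measured by imaging after background removal, scaled to each plate median and turned into robust z-scores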
- Scale: Tnf reporter robust z-score: higher = stronger Tnf promoter reporter signal after LPS; Tnf reporter intensity: higher = stronger Tnf promoter reporter signal
- Rule for the call: 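a well counts as active at a score of -1.3 or below (Tlr4 knock-down control median) or above 3 (raised signal); controls and wells holding fewer than 50 cells are excluded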
- Meaning of the calls: active = Tnf reporter clearly lowered or raised; inactive = no clear change in Tnf reporter

gene knocked down | Tnf reporter robust z-score | fewer than 50 cells in well | Tnf reporter intensity, replicate 1 | Tnf reporter intensity, replicate 2
Ubxn1 (GeneID 225896) | 0.02 | enough cells in well | 295 | 77.5
Ppfia4 (GeneID 68507) | 0.32 | enough cells in well | 314 | 177
Cd28 (GeneID 12487) | -0.92 | enough cells in well | 144 | 168
F2 (GeneID 14061) | 0.9 | enough cells in well | 306 | 293
Uqcrq (GeneID 22272) | -0.46 | enough cells in well | 235 | 61.3
Npl (GeneID 74091) | 0.67 | enough cells in well | 268 | 154
Igfbp5 (GeneID 16011) | -1.35 (active) | enough cells in well | 103 | 72.8
Slc22a15 (GeneID 242126) | 0.88 | enough cells in well | 259 | 90.2
Rasl10a (GeneID 75668) | -0.03 | enough cells in well | 155 | 158
Snrpn (GeneID 20646) | -0.56 | enough cells in well | 206 | 193
Myl7 (GeneID 17898) | 0.01 | enough cells in well | 242 | 225
Kmt2a (GeneID 214162) | -1.63 (active) | enough cells in well | 129 | 83.8
